Experimental data as given in the supplement of paper PMC9454738.
Where a name gives a salt, the structure may show the parent alone. ± gives the standard deviation of the averaged measurements. Some of the results follow. Repeats in this data set agree poorly, so a single value says little.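 Test systems: triple-negative MDA-MB-231 breast cancer cells and their brain-metastatic MDA-MB-231BRM derivative, each stably carrying empty vector, full-length GLI1 or truncated tGLI1. Viability after 48 h was read by CellTiter-Blue and expressed against 1% DMSO vehicle. A compound was tGLI1-selective if it lowered viability 20% more in tGLI1 cells than in vector and GLI1 cells.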

Experiments:
Test in all cases: cell viability relative to vehicle (DMSO) control (fraction); higher = more viable cells (less growth inhibition)
Settings in all cases: treatment time 48 h
MDA-MB-231 GLI1 = system: MDA-MB-231 GLI1
MDA-MB-231 Vector = system: MDA-MB-231 Vector
MDA-MB-231 tGLI1 = system: MDA-MB-231 tGLI1
MDA-MB-231BRM GLI1 = system: MDA-MB-231BRM GLI1
MDA-MB-231BRM Vector = system: MDA-MB-231BRM Vector
MDA-MB-231BRM tGLI1 = system: MDA-MB-231BRM tGLI1

Row | SMILES | cell viability (MDA-MB-231 GLI1; 0.05 µM) | cell viability (MDA-MB-231 GLI1; 0.5 µM) | cell viability (MDA-MB-231 GLI1; 5 µM) | cell viability (MDA-MB-231 Vector; 0.05 µM) | cell viability (MDA-MB-231 Vector; 0.5 µM) | cell viability (MDA-MB-231 Vector; 5 µM) | cell viability (MDA-MB-231 tGLI1; 0.05 µM) | cell viability (MDA-MB-231 tGLI1; 0.5 µM) | cell viability (MDA-MB-231 tGLI1; 5 µM) | cell viability (MDA-MB-231BRM GLI1; 0.05 µM) | cell viability (MDA-MB-231BRM GLI1; 0.5 µM) | cell viability (MDA-MB-231BRM GLI1; 5 µM) | cell viability (MDA-MB-231BRM Vector; 0.05 µM) | cell viability (MDA-MB-231BRM Vector; 0.5 µM) | cell viability (MDA-MB-231BRM Vector; 5 µM) | cell viability (MDA-MB-231BRM tGLI1; 0.05 µM) | cell viability (MDA-MB-231BRM tGLI1; 0.5 µM) | cell viability (MDA-MB-231BRM tGLI1; 5 µM)
1 | CS(=O)(=O)CCNCc1ccc(-c2ccc3ncnc(Nc4ccc(OCc5cccc(F)c5)c(Cl)c4)c3c2)o1 [Lapatinib] | 1.19 ± 0.35 | 0.825 ± 0.34 | 1.2 ± 0.37 | 1.45 ± 0.55 | 1.19 ± 0.16 | 0.915 ± 0.11 | 1.14 ± 0.23 | 1.16 ± 0.38 | 1.05 ± 0.3 | 1.03 ± 0.13 | 0.959 ± 0.12 | 0.853 ± 0.14 | 1.04 ± 0.16 | 0.893 ± 0.11 | 0.778 ± 0.074 | 0.975 ± 0.077 | 1.01 ± 0.15 | 0.79 ± 0.13
2 | CNC(=O)c1cc(Oc2ccc(NC(=O)Nc3ccc(Cl)c(C(F)(F)F)c3)cc2)ccn1 [Sorafenib] | 1.12 | 1.62 | 0.6 | 0.663 | 0.557 | 0.365 | 0.614 | 0.56 | 0.427 | 0.561 | 0.684 | 0.423 | 0.512 | 0.665 | 0.404 | 0.809 | 0.724 | 0.711
3 | CC(C)NCC(O)COc1ccc(COCCOC(C)C)cc1 (stereo unspecified) [Bisoprolol fumarate] | 1.32 | 1.03 | 1.1 | 1.05 | 1.25 | 1.12 | 1.14 | 0.95 | 1.14 | 1.1 | 1.02 | 1.02 | 0.963 | 1.03 | 1.03 | 1.07 | 1.02 | 1.06
4 | NC(=O)c1cnc(N[C@@H]2CCCC[C@@H]2N)nc1Nc1cccc(-n2nccn2)c1 | 2.23 | 2.95 | 0.57 | 1.45 | 1.08 | 0.222 | 1.35 | 1.48 | 0.221 | 0.828 | 0.766 | 0.634 | 0.92 | 0.784 | 0.705 | 1.17 | 1.05 | 0.978
5 | CO[C@H]1C[C@@H]2CC[C@@H](C)[C@@](O)(O2)C(=O)C(=O)N2CCCC[C@H]2C(=O)O[C@H]([C@H](C)C[C@@H]2CC[C@@H](OCCO)[C@H](OC)C2)CC(=O)[C@H](C)/C=C(\C)[C@@H](O)[C@@H](OC)C(=O)[C@H](C)C[C@H](C)/C=C/C=C/C=C/1C [Everolimus (RAD001)] | 0.896 ± 0.12 | 0.804 ± 0.35 | 0.716 ± 0.13 | 0.951 ± 0.038 | 0.7 ± 0.21 | 0.561 ± 0.13 | 0.832 ± 0.073 | 0.761 ± 0.33 | 0.573 ± 0.073 | 0.892 ± 0.013 | 0.885 ± 0.041 | 0.764 ± 0.2 | 0.871 ± 0.018 | 0.859 ± 0.035 | 0.825 ± 0.17 | 0.907 ± 0.034 | 0.844 ± 0.056 | 0.789 ± 0.093
6 | O=C(NCc1cccc(O)c1)Nc1nc(-c2ccncc2)cs1 | 1.28 | 1.32 | 0.713 | 1.25 | 1.18 | 0.808 | 1.29 | 1.05 | 0.709 | 1.26 | 1.09 | 1.08 | 1.24 | 1.16 | 1.09 | 1.13 | 1.05 | 1.01
7 | Nc1ncnc2c1c(-c1cccc(OCc3ccccc3)c1)cn2C1CC(CN2CCCC2)C1 (stereo unspecified) | 1.27 | 1.5 | -0.062 | 1.42 | 1.1 | 0.318 | 1.27 | 1.37 | -0.0636 | 0.932 | 0.996 | 0.966 | 0.986 | 0.931 | 0.986 | 0.903 | 0.938 | 0.84
